Among the data in article PMC11949031 are binding values, retold here.

Chains of the proteins cited; added tags and fusions are not shown.
UniProt P35579: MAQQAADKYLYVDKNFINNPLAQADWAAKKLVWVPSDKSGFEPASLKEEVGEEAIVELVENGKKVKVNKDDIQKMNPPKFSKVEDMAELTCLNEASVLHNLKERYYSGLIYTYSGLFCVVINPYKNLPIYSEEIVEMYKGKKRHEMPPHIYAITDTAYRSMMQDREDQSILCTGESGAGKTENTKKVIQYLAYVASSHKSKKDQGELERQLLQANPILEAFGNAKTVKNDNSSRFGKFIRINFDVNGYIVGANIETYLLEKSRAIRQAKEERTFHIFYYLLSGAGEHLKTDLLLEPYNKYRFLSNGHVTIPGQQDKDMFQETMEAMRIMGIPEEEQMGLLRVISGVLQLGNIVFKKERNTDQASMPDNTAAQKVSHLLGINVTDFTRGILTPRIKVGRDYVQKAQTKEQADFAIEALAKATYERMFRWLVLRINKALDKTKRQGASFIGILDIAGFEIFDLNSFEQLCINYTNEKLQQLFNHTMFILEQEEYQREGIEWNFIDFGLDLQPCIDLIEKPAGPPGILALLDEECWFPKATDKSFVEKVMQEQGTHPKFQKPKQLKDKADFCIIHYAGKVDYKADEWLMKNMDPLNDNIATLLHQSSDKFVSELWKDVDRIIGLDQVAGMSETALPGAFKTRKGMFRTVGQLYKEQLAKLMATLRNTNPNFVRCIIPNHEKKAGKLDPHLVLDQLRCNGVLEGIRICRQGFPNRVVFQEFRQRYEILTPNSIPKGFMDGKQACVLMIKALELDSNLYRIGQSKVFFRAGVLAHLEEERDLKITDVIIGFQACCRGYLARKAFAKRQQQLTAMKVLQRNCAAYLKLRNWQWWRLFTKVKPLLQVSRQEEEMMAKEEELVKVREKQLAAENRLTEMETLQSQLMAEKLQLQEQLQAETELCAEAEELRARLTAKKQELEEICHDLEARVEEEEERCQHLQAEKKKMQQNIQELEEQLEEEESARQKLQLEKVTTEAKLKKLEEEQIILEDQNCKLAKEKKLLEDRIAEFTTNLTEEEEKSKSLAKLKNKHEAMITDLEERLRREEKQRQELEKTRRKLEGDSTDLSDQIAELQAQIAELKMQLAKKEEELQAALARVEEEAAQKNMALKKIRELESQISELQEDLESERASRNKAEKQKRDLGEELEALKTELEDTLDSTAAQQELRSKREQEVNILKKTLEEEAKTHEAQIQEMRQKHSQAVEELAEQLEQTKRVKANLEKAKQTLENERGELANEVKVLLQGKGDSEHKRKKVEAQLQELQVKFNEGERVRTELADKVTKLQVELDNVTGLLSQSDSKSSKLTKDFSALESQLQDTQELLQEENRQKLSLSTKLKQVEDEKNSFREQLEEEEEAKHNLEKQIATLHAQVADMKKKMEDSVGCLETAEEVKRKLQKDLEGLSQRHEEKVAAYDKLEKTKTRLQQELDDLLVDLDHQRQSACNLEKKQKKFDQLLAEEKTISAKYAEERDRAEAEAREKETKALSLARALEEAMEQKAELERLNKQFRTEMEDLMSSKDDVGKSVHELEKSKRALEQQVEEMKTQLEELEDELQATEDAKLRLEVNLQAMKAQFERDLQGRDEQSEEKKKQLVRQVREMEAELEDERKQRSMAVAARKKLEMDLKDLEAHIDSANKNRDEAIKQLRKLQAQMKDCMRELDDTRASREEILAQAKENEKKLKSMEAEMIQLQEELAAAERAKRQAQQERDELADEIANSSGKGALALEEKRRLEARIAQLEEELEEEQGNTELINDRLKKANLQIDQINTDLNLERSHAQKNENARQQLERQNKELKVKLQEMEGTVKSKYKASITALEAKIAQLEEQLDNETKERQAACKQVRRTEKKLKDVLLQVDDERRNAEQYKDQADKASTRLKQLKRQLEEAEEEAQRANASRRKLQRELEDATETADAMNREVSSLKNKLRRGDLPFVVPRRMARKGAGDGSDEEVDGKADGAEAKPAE
UniProt P35580: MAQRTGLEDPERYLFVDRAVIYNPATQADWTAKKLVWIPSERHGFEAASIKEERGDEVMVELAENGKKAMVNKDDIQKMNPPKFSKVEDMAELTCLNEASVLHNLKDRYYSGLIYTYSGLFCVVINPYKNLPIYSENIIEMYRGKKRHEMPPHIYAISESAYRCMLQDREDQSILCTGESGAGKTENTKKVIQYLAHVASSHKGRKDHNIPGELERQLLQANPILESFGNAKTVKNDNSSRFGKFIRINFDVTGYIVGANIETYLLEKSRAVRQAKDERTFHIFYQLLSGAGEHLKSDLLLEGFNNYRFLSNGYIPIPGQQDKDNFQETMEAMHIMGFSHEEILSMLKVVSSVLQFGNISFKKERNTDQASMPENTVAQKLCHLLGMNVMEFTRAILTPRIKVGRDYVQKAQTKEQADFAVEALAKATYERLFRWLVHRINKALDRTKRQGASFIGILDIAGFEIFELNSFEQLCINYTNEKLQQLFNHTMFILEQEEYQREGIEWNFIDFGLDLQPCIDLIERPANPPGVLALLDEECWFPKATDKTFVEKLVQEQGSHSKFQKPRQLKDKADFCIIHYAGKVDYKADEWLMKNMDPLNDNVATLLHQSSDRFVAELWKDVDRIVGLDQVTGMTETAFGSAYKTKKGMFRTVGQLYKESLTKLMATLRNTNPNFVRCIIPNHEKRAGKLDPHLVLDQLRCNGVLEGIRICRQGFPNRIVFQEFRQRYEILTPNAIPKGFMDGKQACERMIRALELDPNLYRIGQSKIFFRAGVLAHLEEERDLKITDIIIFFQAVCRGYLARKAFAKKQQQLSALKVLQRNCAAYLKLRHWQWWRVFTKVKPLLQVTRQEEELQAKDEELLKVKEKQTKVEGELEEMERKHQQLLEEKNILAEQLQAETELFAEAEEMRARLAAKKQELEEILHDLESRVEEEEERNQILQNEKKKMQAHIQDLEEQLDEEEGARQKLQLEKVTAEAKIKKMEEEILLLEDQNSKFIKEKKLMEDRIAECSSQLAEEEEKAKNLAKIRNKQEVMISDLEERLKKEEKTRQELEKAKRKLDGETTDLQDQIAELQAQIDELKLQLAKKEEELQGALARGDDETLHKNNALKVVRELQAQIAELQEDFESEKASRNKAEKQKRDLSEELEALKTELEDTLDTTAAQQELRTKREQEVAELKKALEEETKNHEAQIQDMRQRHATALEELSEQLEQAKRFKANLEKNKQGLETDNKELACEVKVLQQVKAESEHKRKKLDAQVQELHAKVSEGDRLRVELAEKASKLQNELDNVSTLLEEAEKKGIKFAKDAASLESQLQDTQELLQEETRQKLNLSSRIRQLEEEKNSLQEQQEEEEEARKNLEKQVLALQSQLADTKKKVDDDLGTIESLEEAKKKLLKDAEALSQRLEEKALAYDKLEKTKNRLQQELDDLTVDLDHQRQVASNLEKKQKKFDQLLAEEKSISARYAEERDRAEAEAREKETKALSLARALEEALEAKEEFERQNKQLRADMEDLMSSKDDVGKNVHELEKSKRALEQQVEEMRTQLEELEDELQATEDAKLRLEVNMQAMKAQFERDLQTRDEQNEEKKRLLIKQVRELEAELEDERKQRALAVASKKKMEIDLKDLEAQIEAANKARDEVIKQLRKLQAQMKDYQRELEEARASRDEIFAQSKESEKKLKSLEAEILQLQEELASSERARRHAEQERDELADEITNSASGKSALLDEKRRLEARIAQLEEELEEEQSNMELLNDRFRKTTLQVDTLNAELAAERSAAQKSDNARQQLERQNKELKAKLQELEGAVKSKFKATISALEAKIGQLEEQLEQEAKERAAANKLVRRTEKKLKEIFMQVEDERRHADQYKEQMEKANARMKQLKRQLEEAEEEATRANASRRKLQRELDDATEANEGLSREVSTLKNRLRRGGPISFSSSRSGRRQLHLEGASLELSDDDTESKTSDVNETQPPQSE

These are yes or no findings as the source states them, for the method shown. In cells and extracts the contact can be indirect. Some entries that bind do so weakly or less than the wild type. Where a sequence is shown, tags or fusion partners need not be part of it.

The target in assay [1] is T1, HA-tagged UNC45A p.Leu237Pro mutant (human) (UniProt Q9H3U1).
T1 sequence: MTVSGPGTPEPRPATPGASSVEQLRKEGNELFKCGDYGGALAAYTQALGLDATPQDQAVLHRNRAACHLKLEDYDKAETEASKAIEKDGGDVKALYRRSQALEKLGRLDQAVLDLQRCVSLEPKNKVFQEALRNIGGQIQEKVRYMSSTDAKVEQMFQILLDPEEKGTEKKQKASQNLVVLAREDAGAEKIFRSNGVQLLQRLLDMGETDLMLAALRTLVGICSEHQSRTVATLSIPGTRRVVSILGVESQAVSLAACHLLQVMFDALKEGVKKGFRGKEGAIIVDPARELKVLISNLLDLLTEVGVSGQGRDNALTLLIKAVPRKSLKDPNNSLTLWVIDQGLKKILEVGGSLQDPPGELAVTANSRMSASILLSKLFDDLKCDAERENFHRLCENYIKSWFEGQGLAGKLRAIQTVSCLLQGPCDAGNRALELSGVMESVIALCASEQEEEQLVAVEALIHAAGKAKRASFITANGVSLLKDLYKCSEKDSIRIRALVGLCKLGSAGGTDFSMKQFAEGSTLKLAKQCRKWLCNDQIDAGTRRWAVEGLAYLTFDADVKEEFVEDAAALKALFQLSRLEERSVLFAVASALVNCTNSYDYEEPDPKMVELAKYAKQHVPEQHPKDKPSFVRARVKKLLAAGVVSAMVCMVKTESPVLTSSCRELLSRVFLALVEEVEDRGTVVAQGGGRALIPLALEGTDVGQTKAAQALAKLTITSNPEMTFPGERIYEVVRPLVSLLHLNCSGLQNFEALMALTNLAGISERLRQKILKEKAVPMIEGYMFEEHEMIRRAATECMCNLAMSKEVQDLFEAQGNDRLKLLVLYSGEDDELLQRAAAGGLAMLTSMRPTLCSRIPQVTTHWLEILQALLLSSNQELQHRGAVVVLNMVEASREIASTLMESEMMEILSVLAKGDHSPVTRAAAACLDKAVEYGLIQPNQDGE
Put plainly: co-IP; anti-HA antibody and Protein A-Sepharose from lysates of transiently transfected U2OS UNC45A-KO cells; EDTA-free EB4 lysis buffer (40 mM Tris-HCl pH 8.0, 100 mM NaCl, 0.5% NP-40), 4°C; immunoblot for HA, NMIIA, NMIIB. (A western blot detects proteins with antibodies after separation by electrophoresis.)

Assay [2] has as its target T2, His-tagged UNC45A wild-type (human) (UniProt Q9H3U1).
T2 sequence: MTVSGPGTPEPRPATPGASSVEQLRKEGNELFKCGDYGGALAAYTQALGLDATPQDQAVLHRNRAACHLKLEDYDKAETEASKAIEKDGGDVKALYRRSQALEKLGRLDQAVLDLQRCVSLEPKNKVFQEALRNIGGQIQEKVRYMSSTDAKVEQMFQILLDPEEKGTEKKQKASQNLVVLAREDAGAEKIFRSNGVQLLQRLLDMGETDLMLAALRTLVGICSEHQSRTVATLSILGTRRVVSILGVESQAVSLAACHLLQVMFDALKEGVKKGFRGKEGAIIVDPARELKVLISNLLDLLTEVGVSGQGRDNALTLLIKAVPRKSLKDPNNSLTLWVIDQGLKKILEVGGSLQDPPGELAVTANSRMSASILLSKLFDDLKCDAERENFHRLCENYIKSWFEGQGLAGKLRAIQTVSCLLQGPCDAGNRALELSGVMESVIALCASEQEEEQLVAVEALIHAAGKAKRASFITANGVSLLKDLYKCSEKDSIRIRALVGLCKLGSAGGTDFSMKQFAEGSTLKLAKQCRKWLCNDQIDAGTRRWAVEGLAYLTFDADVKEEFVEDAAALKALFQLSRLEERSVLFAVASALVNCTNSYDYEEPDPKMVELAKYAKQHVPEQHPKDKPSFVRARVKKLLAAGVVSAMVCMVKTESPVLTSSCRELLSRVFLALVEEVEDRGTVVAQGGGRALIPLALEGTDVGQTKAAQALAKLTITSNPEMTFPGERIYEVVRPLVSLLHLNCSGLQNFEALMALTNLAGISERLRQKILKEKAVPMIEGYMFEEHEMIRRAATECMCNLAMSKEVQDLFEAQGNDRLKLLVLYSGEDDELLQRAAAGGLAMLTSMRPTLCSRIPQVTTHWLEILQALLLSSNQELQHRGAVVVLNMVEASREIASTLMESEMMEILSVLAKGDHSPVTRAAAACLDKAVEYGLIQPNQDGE
In words: pull-down; oligomerization assay: His- and HA-tagged UNC45A cotransfected in U2OS UNC45A-KO cells; His-tagged bait held on Ni-NTA Agarose, 17.5 mM imidazole, 4°C; washes with EDTA-free EB4 buffer with 25 mM imidazole and then 400 mM NaCl; immunoblot for HA.

Assay [3] addresses T3, His-tagged UNC45A p.Leu237Pro mutant (human) (UniProt Q9H3U1).
T3 sequence: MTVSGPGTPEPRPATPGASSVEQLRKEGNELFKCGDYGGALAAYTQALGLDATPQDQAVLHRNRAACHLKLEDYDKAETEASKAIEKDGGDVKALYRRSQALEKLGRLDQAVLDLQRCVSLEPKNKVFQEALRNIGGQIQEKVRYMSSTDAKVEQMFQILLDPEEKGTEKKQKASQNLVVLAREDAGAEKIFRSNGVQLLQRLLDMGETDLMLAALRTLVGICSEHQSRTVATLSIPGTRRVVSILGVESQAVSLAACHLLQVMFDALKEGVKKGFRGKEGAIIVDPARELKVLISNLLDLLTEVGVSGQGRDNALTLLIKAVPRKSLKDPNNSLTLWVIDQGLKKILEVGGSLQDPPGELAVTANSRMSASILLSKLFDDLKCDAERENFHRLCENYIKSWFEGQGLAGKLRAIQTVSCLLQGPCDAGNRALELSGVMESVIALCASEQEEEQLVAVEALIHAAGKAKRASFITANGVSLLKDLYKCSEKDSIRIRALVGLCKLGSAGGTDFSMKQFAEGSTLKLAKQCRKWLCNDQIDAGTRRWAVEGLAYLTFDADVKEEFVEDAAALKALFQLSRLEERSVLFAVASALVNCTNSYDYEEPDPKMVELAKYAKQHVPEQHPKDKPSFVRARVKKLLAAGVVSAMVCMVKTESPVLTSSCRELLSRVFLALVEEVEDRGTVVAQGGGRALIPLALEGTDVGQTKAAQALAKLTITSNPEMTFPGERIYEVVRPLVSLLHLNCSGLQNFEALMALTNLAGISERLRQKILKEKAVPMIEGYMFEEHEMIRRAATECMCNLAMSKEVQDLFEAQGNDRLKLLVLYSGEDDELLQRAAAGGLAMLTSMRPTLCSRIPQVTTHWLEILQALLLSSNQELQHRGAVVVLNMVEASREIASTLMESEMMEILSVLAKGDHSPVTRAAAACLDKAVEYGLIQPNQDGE
The description is as above.

With NMIIA (from UniProt P35579 1-1960), the binding result in assay [1] is on record as “binds”.

On to NMIIB (from UniProt P35580 1-1976), for which the binding result in assay [1] was “binds”.

B1: HA-tagged UNC45A wild-type (Unc-45 myosin chaperone A) (protein, UniProt Q9H3U1-1 1-944)
chain: MTVSGPGTPEPRPATPGASSVEQLRKEGNELFKCGDYGGALAAYTQALGLDATPQDQAVLHRNRAACHLKLEDYDKAETEASKAIEKDGGDVKALYRRSQALEKLGRLDQAVLDLQRCVSLEPKNKVFQEALRNIGGQIQEKVRYMSSTDAKVEQMFQILLDPEEKGTEKKQKASQNLVVLAREDAGAEKIFRSNGVQLLQRLLDMGETDLMLAALRTLVGICSEHQSRTVATLSILGTRRVVSILGVESQAVSLAACHLLQVMFDALKEGVKKGFRGKEGAIIVDPARELKVLISNLLDLLTEVGVSGQGRDNALTLLIKAVPRKSLKDPNNSLTLWVIDQGLKKILEVGGSLQDPPGELAVTANSRMSASILLSKLFDDLKCDAERENFHRLCENYIKSWFEGQGLAGKLRAIQTVSCLLQGPCDAGNRALELSGVMESVIALCASEQEEEQLVAVEALIHAAGKAKRASFITANGVSLLKDLYKCSEKDSIRIRALVGLCKLGSAGGTDFSMKQFAEGSTLKLAKQCRKWLCNDQIDAGTRRWAVEGLAYLTFDADVKEEFVEDAAALKALFQLSRLEERSVLFAVASALVNCTNSYDYEEPDPKMVELAKYAKQHVPEQHPKDKPSFVRARVKKLLAAGVVSAMVCMVKTESPVLTSSCRELLSRVFLALVEEVEDRGTVVAQGGGRALIPLALEGTDVGQTKAAQALAKLTITSNPEMTFPGERIYEVVRPLVSLLHLNCSGLQNFEALMALTNLAGISERLRQKILKEKAVPMIEGYMFEEHEMIRRAATECMCNLAMSKEVQDLFEAQGNDRLKLLVLYSGEDDELLQRAAAGGLAMLTSMRPTLCSRIPQVTTHWLEILQALLLSSNQELQHRGAVVVLNMVEASREIASTLMESEMMEILSVLAKGDHSPVTRAAAACLDKAVEYGLIQPNQDGE
With B1, in assay [2], the binding entry is given as “binds”.

B2: HA-tagged UNC45A p.Leu237Pro mutant (protein, UniProt Q9H3U1-1 1-944)
chain: MTVSGPGTPEPRPATPGASSVEQLRKEGNELFKCGDYGGALAAYTQALGLDATPQDQAVLHRNRAACHLKLEDYDKAETEASKAIEKDGGDVKALYRRSQALEKLGRLDQAVLDLQRCVSLEPKNKVFQEALRNIGGQIQEKVRYMSSTDAKVEQMFQILLDPEEKGTEKKQKASQNLVVLAREDAGAEKIFRSNGVQLLQRLLDMGETDLMLAALRTLVGICSEHQSRTVATLSIPGTRRVVSILGVESQAVSLAACHLLQVMFDALKEGVKKGFRGKEGAIIVDPARELKVLISNLLDLLTEVGVSGQGRDNALTLLIKAVPRKSLKDPNNSLTLWVIDQGLKKILEVGGSLQDPPGELAVTANSRMSASILLSKLFDDLKCDAERENFHRLCENYIKSWFEGQGLAGKLRAIQTVSCLLQGPCDAGNRALELSGVMESVIALCASEQEEEQLVAVEALIHAAGKAKRASFITANGVSLLKDLYKCSEKDSIRIRALVGLCKLGSAGGTDFSMKQFAEGSTLKLAKQCRKWLCNDQIDAGTRRWAVEGLAYLTFDADVKEEFVEDAAALKALFQLSRLEERSVLFAVASALVNCTNSYDYEEPDPKMVELAKYAKQHVPEQHPKDKPSFVRARVKKLLAAGVVSAMVCMVKTESPVLTSSCRELLSRVFLALVEEVEDRGTVVAQGGGRALIPLALEGTDVGQTKAAQALAKLTITSNPEMTFPGERIYEVVRPLVSLLHLNCSGLQNFEALMALTNLAGISERLRQKILKEKAVPMIEGYMFEEHEMIRRAATECMCNLAMSKEVQDLFEAQGNDRLKLLVLYSGEDDELLQRAAAGGLAMLTSMRPTLCSRIPQVTTHWLEILQALLLSSNQELQHRGAVVVLNMVEASREIASTLMESEMMEILSVLAKGDHSPVTRAAAACLDKAVEYGLIQPNQDGE
Take B2: the binding entry in assay [3] and in assay [2] was “binds” each time.
